# The list shows a part of the results. Cut-off read from the data, not from the text of the source: active = 1.25 or more and inactive = the rest. Single values are uncertain, as repeats are few or missing.
# System: Kcc2-LUC knock-in mouse primary cortical neurons (Kcc2 promoter reporter)
# Assay: Kcc2 promoter-driven luciferase activity relative to vehicle control (fold of vehicle (ratio)); higher = stronger Kcc2 promoter activation (Kcc2 expression enhancer)
# Details: 100 nM; 48 h
row,Structure (SMILES),Kcc2 promoter-driven luciferase activity
1,CC(=O)NCCCCCCNC(C)=O [Hexamethylene Bisacetamide],inactive: 1.13
2,N=N/C(=C\c1c(O)[nH]c2ccccc12)c1ccccc1,inactive: 0.9
3,O=C(NC(=O)c1c(Cl)nc2sccn12)Nc1ccc(Cl)cc1,inactive: 1.05
4,CCCCCCCCCCCCCCCCCCN(C)C(COC)COP(=O)([O-])OCC[N+](C)(C)C (centres undefined),inactive: 0.88
5,Nc1nc(=S)c2ncn([C@@H]3C[C@H](O)[C@@H](CO)O3)c2[nH]1 [.alpha.-Thiodeoxyguanosine],inactive: 0.7
6,Cc1cccc(Cl)c1NC(=O)/C=C/c1ccccc1 [(E)-N-(2-chloro-6-methylphenyl)-3-phenylprop-2-enamide],inactive: 1
7,O=S(=O)(O)c1cc(N=Nc2cc(S(=O)(=O)O)c3cccnc3c2O)ccc1/C=C/c1ccc(N=Nc2cc(S(=O)(=O)O)c3cccnc3c2O)cc1S(=O)(=O)O [Quinobene],inactive: 1.15
8,NC(=Nc1nc(-c2ccccn2)cc2ccccc12)c1ccccn1,active: 1.43
9,CCN(CC)C(=S)S [Dithiocarb],inactive: 0.84
10,O=C(CC(=O)c1ccccc1NC1=Cc2ccccc2C(=O)C1=O)C(=O)NC1=C(Cl)C(=O)c2ccccc2C1=O,inactive: 1
11,"O=C(Nc1ccc2c(c1)oc(=O)c1ccccc12)C(Cl)Cl [2,2-Dichloro-N-(6-oxobenzo[c]chromen-3-yl)acetamide]",inactive: 0.77
12,O=NN(CCCl)C(=O)NCc1ccc[n+]([O-])c1 [1-(2-Chloroethyl)-1-nitroso-3-(3-pyridylmethyl)urea N-oxide],inactive: 0.34
13,S=C(Nc1ccccc1)N(/N=C/C=C/c1ccccc1)c1nnc(-c2ccccc2)c(-c2ccccc2)n1,inactive: 0.78
14,COc1cc(C)cc2c(-c3c(O)cc(O)c4c3C[C@@H](C)N[C@@H]4C)cc(-c3cc(-c4c(O)cc(O)c5c4C[C@@H](C)N[C@@H]5C)c4cc(C)cc(OC)c4c3O)c(O)c12 [Michellamine A],inactive: 1.2
15,COC(=O)[C@@H]1c2cc3c(c(O)c2[C@@H](O[C@@H]2O[C@@H](C)[C@H](OC)[C@@](C)(OC)[C@H]2OC)C[C@]1(C)O)C(=O)c1c(O)cc2c(c1C3=O)O[C@@H]1O[C@@]2(C)[C@H](O)[C@@H](N(C)C)[C@@H]1O [Nogalamycin],active: 1.43
16,O=C1C=CN(C2OC(CO)C(O)C2O)C(=O)C1 (centres undefined) [DeazaUrd],active: 1.25
17,"O=C1Oc2ccccc2C(=O)/C1=C1\C=C(c2ccccc2)SS1 [(3Z)-3-(5-Phenyldithiol-3-ylidene)chromane-2,4-dione]",inactive: 1
18,CC[C@H](C)C(=O)O[C@H]1CCC=C2C=C[C@H](C)[C@H](CC[C@@H]3C[C@@H](O)CC(=O)O3)[C@H]21 [Mevastatin (Compactin)],inactive: 1
19,O=C1c2c(O)ccc(O)c2C(=O)c2c(NCCNCCO)ccc(NCCNCCO)c21 [Mitoxantrone],inactive: 0.41
20,NC(=O)NO [Hydroxyurea],inactive: 0.99
21,Cc1c2cc[n+](CCN3CCCCC3)cc2c(C)c2c1[nH]c1ccc(O)cc12,inactive: 0.8
22,CN(C)[C@H]1CCC2[C@@H]3CCC4C[C@@H](NC(=O)NC(Cc5ccccc5)c5nccs5)CC[C@]4(C)C3CC[C@@]21C (some centres undefined),inactive: 0.66
23,"CCN1/C(=C\C(C)=C\c2sc3ccccc3[n+]2CC)Sc2ccccc21 [Benzothiazolium,iodide]",inactive: 1.15
24,CC(=O)c1sc2c(c1OC(=O)c1ccc(Cl)cc1Cl)c(=O)n(-c1ccccc1)c(=S)n2-c1ccccc1,inactive: 0.78
25,OC[C@H]1O[C@@H](n2cnc3cncnc32)[C@H](O)[C@@H]1O [Purine riboside],inactive: 0.96
26,Cc1nnc(-n2c(O)cc(=O)n(-c3ccccc3)c2=S)nc1/C=C/c1ccc(N(C)C)cc1,inactive: 0.99
27,CC(C)(C)[Si](C)(C)OCC1CCC(n2cnc3c(N)ncnc32)O1 (centres undefined),inactive: 0.93
28,COc1cc2oc(=O)cc(C)c2cc1[N+](=O)[O-] [7-Methoxy-4-methyl-6-nitrochromen-2-one],inactive: 1.14
29,CCCC(=O)[O-].[Na+] [Sodium Butyrate],inactive: 1.09

# Two neighbouring entries already listed:
row,Structure (SMILES),Kcc2 promoter-driven luciferase activity
9,CCN(CC)C(=S)S [Dithiocarb],inactive: 0.84
10,O=C(CC(=O)c1ccccc1NC1=Cc2ccccc2C(=O)C1=O)C(=O)NC1=C(Cl)C(=O)c2ccccc2C1=O,inactive: 1

# — the supplement of paper PMC8551327
